Consider 42 sequences from publication PMC7819943, “Rice protein-binding microarrays: a tool to detect cis-acting elements near promoter regions in rice”.

Protein sequences, listed by entry. Tags and fused reporters are not part of them.
UniProt Q0JBA9, entry or part of it: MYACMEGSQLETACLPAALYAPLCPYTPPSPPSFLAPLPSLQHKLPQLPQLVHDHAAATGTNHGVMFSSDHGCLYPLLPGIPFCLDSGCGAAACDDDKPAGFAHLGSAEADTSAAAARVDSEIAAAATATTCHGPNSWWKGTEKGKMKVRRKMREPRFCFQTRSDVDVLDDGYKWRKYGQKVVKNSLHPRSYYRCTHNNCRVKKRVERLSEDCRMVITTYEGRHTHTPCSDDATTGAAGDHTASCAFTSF

Some of the results follow.

The target in the test is OsWRKY34 (Oryza sativa, UniProt Q0JBA9 1-250). The test can be described thus: protein-binding microarray (RPBM); PBS, 2% BSA, 51.3 ng/ul salmon testes DNA, 50 uM zinc acetate, 200 nM TF, 25 C, 1 h; high values mean tight binding. Conditions: protein: recombinant; tags: N-terminal polyhistidine and DsRed monomer fusion (pET32a); label: CyDye5-dUTP incorporated in the synthesized complementary strand; 3' TTTTT single-stranded linker to array surface; dsDNA, one strand shown. A digest of the protocol: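 Binding signal is defined as the fluorescence intensity of each feature in arbitrary units, read on an Axon 4000B scanner. Transcription factors with N-terminal polyhistidine and DsRed fusions came from E. coli BL21-CodonPlus and were purified on Ni–NTA. They were incubated at 200 nM for 1 h at 25 °C on a custom Agilent array that had been made double-stranded with Cy5-dUTP, with 50 µM zinc acetate present, and the array was washed.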
Regarding “TTTTGCGTGCTTCCAGCTTATCATGAACCTCGTCACAACGCGGAGTCACCTAGTGCAG”, the binding signal was 11300 fluorescence intensity (a.u.). To “TGCTGCTCTTGACACCACGTCGTTGCTGCCCTGCTTCCACCGGAGTCACCTAGTGCAG” belongs 11200 fluorescence intensity (a.u.); to “AGGGGCGGAGGGCAGCGATTTTGGTTGGTAGTAGTACGGGCGGAGTCACCTAGTGCAG”, 10500 fluorescence intensity (a.u.); to “ACTGCCGTGCCAGTTTGTTTCAGCAAAGTATGTTTTTGCTCGGAGTCACCTAGTGCAG”, 8970 fluorescence intensity (a.u.). To “TTATTTTTGTGGTCTATTTACTATTTTACTATTTATTTTTCGGAGTCACCTAGTGCAG” belongs 8300 fluorescence intensity (a.u.); to “TTGCTTTTTTATGCTCAATGCTGTCTGTTTTATCAGAAACCGGAGTCACCTAGTGCAG”, 8680 fluorescence intensity (a.u.); to “TAGTTAACTCTTTAATTCGTTTCGCTTTTCTGATTGCGAACGGAGTCACCTAGTGCAG”, 8620 fluorescence intensity (a.u.). To “TCATGCATATCCCTGATTTCTCTTTTCTCGCATTTTTTTCCGGAGTCACCTAGTGCAG” belongs 11400 fluorescence intensity (a.u.); to “TCCCCAAATTTGTCCGTACCCTAAGGTCACGATACCGTTCCGGAGTCACCTAGTGCAG”, 8880 fluorescence intensity (a.u.); to “TCTGTACCCATCCCATCTGCAAACCGAATTTCCGATCGATCGGAGTCACCTAGTGCAG”, 10300 fluorescence intensity (a.u.).

As for “TATAGTTCATCCTCACTTAGTTAGTGCTTAAATGATTAATCGGAGTCACCTAGTGCAG”, the binding signal is 9040 fluorescence intensity (a.u.). Under “TTCTCTGTTTTTTTTTCCCTGCTAGTTCATCCTGTCGCCACGGAGTCACCTAGTGCAG” stands 12600 fluorescence intensity (a.u.); under “ACACCACCCAACACCACCACACCACATTTACATTACATTACGGAGTCACCTAGTGCAG”, 11800 fluorescence intensity (a.u.); under “GCTTTGATGATGCACTCATCACCTTCACACGTCGGATCTACGGAGTCACCTAGTGCAG”, 10300 fluorescence intensity (a.u.).

On to “TCTACTGTCATGCTTCCTTGTCCCATTACTACATCGTCATCGGAGTCACCTAGTGCAG”, for which the binding signal is 10100 fluorescence intensity (a.u.).

Turning to “TGCCACTTGTAGTTTTTATTGACGGTCGATATGATGGTCTCGGAGTCACCTAGTGCAG”, the binding signal was 8060 fluorescence intensity (a.u.).

Turning to “GGGCGTGGTGGTGGTGGTGGTGGTTATACGGTTTTCGGTTCGGAGTCACCTAGTGCAG”, the binding signal was 25900 fluorescence intensity (a.u.). To “TTCTTTCCTTACGATTTTTGCTCCTGCTCTAGTTCTTGTTCGGAGTCACCTAGTGCAG” belongs 8140 fluorescence intensity (a.u.); to “AGACTCGTCGATGCTGGCGTCACCACCGTCCCCGACTTCTCGGAGTCACCTAGTGCAG”, 9030 fluorescence intensity (a.u.). To “AGGAGCTTTGGTTTGGTTCGGTTTGTTATTAGGAAGGAGACGGAGTCACCTAGTGCAG” belongs 8550 fluorescence intensity (a.u.); to “ATAGTTTTCATGTTTTTCACGCGCCAAATCGCCCCAACTACGGAGTCACCTAGTGCAG”, 8260 fluorescence intensity (a.u.). As for “TATATGTTGGGATGGAGGGAATAGCTATTTACTTTTTTTTCGGAGTCACCTAGTGCAG”, the binding signal is 9640 fluorescence intensity (a.u.). As for “TCCCGCCGCCGCCGCCTCGCGCCGCCACCTCCGCCTCGCGCGGAGTCACCTAGTGCAG”, the binding signal was 8270 fluorescence intensity (a.u.). To “CTCGCCGAGCTCGAGCTCGATCCATCGCCCGCCAGCCATGCGGAGTCACCTAGTGCAG” belongs 8810 fluorescence intensity (a.u.). To “AGCCTCATGTTGACTACGAGTCTCAGCACGGACCCTAAAGCGGAGTCACCTAGTGCAG” belongs 9510 fluorescence intensity (a.u.); to “GTGGTGAATAGATAGATAGTGCGCGCTTCGGCCGGTCCCCCGGAGTCACCTAGTGCAG”, 9040 fluorescence intensity (a.u.); to “AAACTTTCCTACACACATAAACTTCCAACTTTTTTATCACCGGAGTCACCTAGTGCAG”, 8030 fluorescence intensity (a.u.). To “ATATACTTAGGTCCTGTTTGGGGCAGTTTAAAATTTTGGGCGGAGTCACCTAGTGCAG” belongs 9370 fluorescence intensity (a.u.). Consider “CCTAGACTTCCTCTCTCTCGCGTCGCGCTCGCCTTCGCCTCGGAGTCACCTAGTGCAG”, for which the binding signal was 8820 fluorescence intensity (a.u.). Consider “CCGGTCGTTTCCCGTATTGTTGGCATATATGTACACGGAGCGGAGTCACCTAGTGCAG”, for which the binding signal is 8030 fluorescence intensity (a.u.).

As for “CTGCTTGTGCATGTGTGACACTTTTCTTTATTGAGCAAGCCGGAGTCACCTAGTGCAG”, the binding signal is 9520 fluorescence intensity (a.u.). To “ACCACCCCACAACCCCACCGTGCACCACGCCCACCACGTGCGGAGTCACCTAGTGCAG” belongs 8540 fluorescence intensity (a.u.); to “AACGGGTTGTTTTGGTTTTGCTGATGTACGACATATCAAGCGGAGTCACCTAGTGCAG”, 9200 fluorescence intensity (a.u.); to “TCCCACGTCTCCGCTTCCAATCCAATCGAACTCAAATCAACGGAGTCACCTAGTGCAG”, 8480 fluorescence intensity (a.u.).

For the sequence “GGCTGGTGGTTTGTTGATGTGGAGCCCGGCCCGGCCGCACCGGAGTCACCTAGTGCAG”, the binding signal was 11900 fluorescence intensity (a.u.). To “TAGGGGTGGGCATTCGGTCTAACTGAAAATTTCGGTCTCGCGGAGTCACCTAGTGCAG” belongs 13500 fluorescence intensity (a.u.); to “TTTGTGCTGTGTTGTTTCTCTGTATCAATTGACACATTCTCGGAGTCACCTAGTGCAG”, 8040 fluorescence intensity (a.u.); to “CATCTATGACCCATTTTTTTTTATTTGACTGATACCCATCCGGAGTCACCTAGTGCAG”, 9760 fluorescence intensity (a.u.). To “CGGTCTATCTGGGGTGAACTTTCTCCTAACATCGGTAATTCGGAGTCACCTAGTGCAG” belongs 8500 fluorescence intensity (a.u.); to “ATCCTTTTGCTTATGGTTATGCTTATCTGTATGGCTTATTCGGAGTCACCTAGTGCAG”, 13000 fluorescence intensity (a.u.). To “TCCGCGGCCGCTCCGCCACTTCCGTCCAGAGACGCGCCTCCGGAGTCACCTAGTGCAG” belongs 9700 fluorescence intensity (a.u.). Consider “ATCAACTCCTATATCTCATAAAAAAATGTTTTTTTCCCCTCGGAGTCACCTAGTGCAG”, for which the binding signal is 8480 fluorescence intensity (a.u.).
